No constants are given. Whether binding was seen depends on the method and setting. Binding seen in cells or lysates may run through a third protein. Some results given as binding are weak or reduced against the parent protein; the word gives no strength. One block for each molecule: values may come before it.
Columns and labels:
[1] = biological target: Hoxd13 (mouse (endogenous in limb buds)) (UniProt P70217); experiment: co-IP; 50 wild-type mouse limb buds at E10.5; anti-Hoxd13 or control rabbit IgG antibodies covalently cross-linked to G protein beads; bound proteins detected by Western blotting with Hand2 antibodies
[2] = biological target: Hoxd13 (expressed in transfected cells) (UniProt P70217); experiment: co-IP; transfected HEK293T cells; protein extracts immunoprecipitated with anti-Flag (Hand2), anti-Hoxd13 (Hoxd13) or anti-Myc (Gli3R) and immunoblotted with the appropriate antibodies

Protein sequences, listed by entry. Tags and fused reporters are not part of them.
UniProt P70217: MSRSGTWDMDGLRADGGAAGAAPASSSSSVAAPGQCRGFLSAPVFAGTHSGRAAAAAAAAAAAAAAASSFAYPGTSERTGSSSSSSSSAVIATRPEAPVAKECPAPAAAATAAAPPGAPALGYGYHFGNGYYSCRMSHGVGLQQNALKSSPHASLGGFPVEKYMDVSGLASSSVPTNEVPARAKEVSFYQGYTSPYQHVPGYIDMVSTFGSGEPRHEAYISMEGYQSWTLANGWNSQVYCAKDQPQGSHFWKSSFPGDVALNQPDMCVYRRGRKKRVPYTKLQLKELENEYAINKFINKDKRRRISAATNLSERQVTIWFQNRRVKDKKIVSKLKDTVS

- binding [1]: binds
Molecule: Hand2 (from UniProt Q61039 1-217)

- binding [2]: binds
B1: Hand2, Flag-epitope tagged (natural protein, UniProt Q61039 1-217, looked up)
chain: MSLVGGFPHHPVVHHEGYPFAAAAAAAAAAAASRCSHEENPYFHGWLIGHPEMSPPDYSMALSYSPEYASGAAGLDHSHYGGVPPGAGPPGLGGPRPVKRRGTANRKERRRTQSINSAFAELRECIPNVPADTKLSKIKTLRLATSYIAYLMDLLAKDDQNGEAEAFKAEIKKTDVKEEKRKKELNEILKSTVSSNDKKTKGRTGWPQHVWALELKQ

— publication PMC2851570, “Distinct Roles of Hand2 in Initiating Polarity and Posterior Shh Expression during the Onset of Mouse Limb Bud Development” (PLoS Genetics, 2010)
